Consider 42 sequences from PMC7819943, “Rice protein-binding microarrays: a tool to detect cis-acting elements near promoter regions in rice”.

Amino acid sequences for entries named in this document (tags omitted).
UniProt Q0JBA9, entry or part of it: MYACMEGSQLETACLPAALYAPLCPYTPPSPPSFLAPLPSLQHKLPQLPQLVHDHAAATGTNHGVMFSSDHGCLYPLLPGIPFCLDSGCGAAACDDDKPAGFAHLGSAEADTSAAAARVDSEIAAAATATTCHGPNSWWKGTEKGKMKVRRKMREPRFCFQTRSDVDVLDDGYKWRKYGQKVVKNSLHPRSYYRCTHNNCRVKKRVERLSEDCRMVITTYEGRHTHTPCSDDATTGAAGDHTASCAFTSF

The list shows a part of the results.

The assay addresses OsWRKY34 (Oryza sativa, UniProt Q0JBA9 1-250). In words: protein-binding microarray (RPBM); PBS, 2% BSA, 51.3 ng/ul salmon testes DNA, 50 uM zinc acetate, 200 nM TF, 25 C, 1 h; high values mean tight binding. The note with it: protein: recombinant; tags: N-terminal polyhistidine and DsRed monomer fusion (pET32a); label: CyDye5-dUTP incorporated in the synthesized complementary strand; 3' TTTTT single-stranded linker to array surface; dsDNA, one strand shown. The method, boiled down:
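An Axon 4000B scanner gave the binding signal as per-feature fluorescence intensity in arbitrary units. This followed washing of a custom Agilent array that had been incubated for 1 h at 25 °C with 200 nM protein in PBS, 2% BSA, salmon testes DNA and 50 µM zinc acetate. The proteins were transcription factors fused at the N-terminus to polyhistidine and DsRed, expressed in E. coli BL21-CodonPlus and purified on Ni–NTA.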
As for “TACACACACAAACTTTCAACTTTTCTGTCATATCGTTCCACGGAGTCACCTAGTGCAG”, the binding signal is 9160 fluorescence intensity (a.u.).

“CCCCTTCGTCGCCGCCGCAATCACACGCACACCCTTTACCCGGAGTCACCTAGTGCAG”: the binding signal was 9770 fluorescence intensity (a.u.).

For “CAGCTTCCTAGATATCCGGCAGAGCACTACTACTATTATCCGGAGTCACCTAGTGCAG”, the binding signal was 8300 fluorescence intensity (a.u.).

Consider “TCGTACGCCTCGGCTGTACTTTGATCCCACCACCACCACCCGGAGTCACCTAGTGCAG”, for which the binding signal was 9210 fluorescence intensity (a.u.).

With “TGTGACCTCTGTGTGTGTGTTGCTTCTCCTGTTCATCACACGGAGTCACCTAGTGCAG”, the binding signal is 11100 fluorescence intensity (a.u.).

With “CCACTCGCTCTCCTCACAGCCACAGCTCGCCATCGTCGTCCGGAGTCACCTAGTGCAG”, the binding signal is 9040 fluorescence intensity (a.u.).

In the case of “CATATCTGATGAAGCCACCTACACCATTTGTCCTATTCTGCGGAGTCACCTAGTGCAG”, the binding signal is 9190 fluorescence intensity (a.u.).

For the sequence “GCGTGAGTGCGGAAAACGAGGGGAGGGGTTGGGAACTTGACGGAGTCACCTAGTGCAG”, the binding signal was 9150 fluorescence intensity (a.u.).

For “GCAGTCCCGGGTCACTGACCGTTTTGACCACCGGTGACCTCGGAGTCACCTAGTGCAG”, the binding signal was 9150 fluorescence intensity (a.u.).

For the sequence “AAGTGTGCCTTATTTTACCATTTGGTTGAGCGTATATATACGGAGTCACCTAGTGCAG”, the binding signal is 10000 fluorescence intensity (a.u.).

On to “TCAACTTTTCTATCACATCAAAACTTTCCTACGCACATAACGGAGTCACCTAGTGCAG”, for which the binding signal was 8370 fluorescence intensity (a.u.).

As for “CCCTTTCGGACCCTCGTCACTCATCGTCGTTTGCCCGGCGCGGAGTCACCTAGTGCAG”, the binding signal was 9150 fluorescence intensity (a.u.).

Turning to “TATCTCCTATCTCCGTCAGAAATCCAATCAATCGCGATTCCGGAGTCACCTAGTGCAG”, the binding signal is 8580 fluorescence intensity (a.u.).

In the case of “CTTCTTCGGATCACTCGGTTGGTTTCTTGGTTTCTTGGTTCGGAGTCACCTAGTGCAG”, the binding signal is 13000 fluorescence intensity (a.u.).

Regarding “ATCAACTCCACTTCTCACACGCAGCACGCTTGCAAAATCCCGGAGTCACCTAGTGCAG”, the binding signal is 10400 fluorescence intensity (a.u.).

As to “AGTACCTTTTTAGCGTATTTTTGCAGAATGTGTGTATCTCCGGAGTCACCTAGTGCAG”, the binding signal is 8850 fluorescence intensity (a.u.).

Consider “GATGTGCTAATGCCTAATGGAATCATATTTTTATTCTGTCCGGAGTCACCTAGTGCAG”, for which the binding signal is 8380 fluorescence intensity (a.u.).

On to “GCAAAAGTCCTCTTGCTCGTGTTGTAGTTGTGTTGCGTTCCGGAGTCACCTAGTGCAG”, for which the binding signal was 8550 fluorescence intensity (a.u.).

Take “GACTTTTTAGTACGTGTTTGACCATTCGTCTTATTCAAAACGGAGTCACCTAGTGCAG”: the binding signal was 11900 fluorescence intensity (a.u.).

Take “ACAACCCACTGCGCTGCCCGCCGCCGCCGTCTCCGGCCGACGGAGTCACCTAGTGCAG”: the binding signal was 8570 fluorescence intensity (a.u.).

Regarding “TAACTCATATCTCTCCTTTTTCACGCACACGCTTTTTAAACGGAGTCACCTAGTGCAG”, the binding signal was 10300 fluorescence intensity (a.u.).

Take “CGCCGCTGCACCCGCCGCCGCCGCCGCCACACCACCGATGCGGAGTCACCTAGTGCAG”: the binding signal was 11200 fluorescence intensity (a.u.).

Take “AGGTGAGGTTTGTTGCTACTTCACCTTCGCTTCGTTGCGCCGGAGTCACCTAGTGCAG”: the binding signal is 8440 fluorescence intensity (a.u.).

For “TGATTTCACTTTGATTCCTCGTCTCTTCTCCTCCTCTATACGGAGTCACCTAGTGCAG”, the binding signal is 9720 fluorescence intensity (a.u.).

In the case of “GCTGCTCACCCGCCACTCCATCTACTCCAACTGCAGGCCCCGGAGTCACCTAGTGCAG”, the binding signal is 8360 fluorescence intensity (a.u.).

Consider “ATCGCCCATCTTACACGTGCACATGCTCCCGTGTCACCTCCGGAGTCACCTAGTGCAG”, for which the binding signal was 10400 fluorescence intensity (a.u.).

Take “CGTCTTCCTACTCCTTTGGACTACTAGCCCGACGCGACCACGGAGTCACCTAGTGCAG”: the binding signal was 8830 fluorescence intensity (a.u.).

On to “TTGTTTTGTGAGTTTCTTGCTCTGGTAATTTATTGTCCTCCGGAGTCACCTAGTGCAG”, for which the binding signal was 8710 fluorescence intensity (a.u.).

Regarding “GGAGGGGTGAGGTTCATTTCTTTGCTCGATAAGGTTTTTGCGGAGTCACCTAGTGCAG”, the binding signal was 13900 fluorescence intensity (a.u.).

Turning to “TCACTTGCACATGGAACCCACTTCTATTTTAAATTCTTTACGGAGTCACCTAGTGCAG”, the binding signal is 9040 fluorescence intensity (a.u.).

Consider “CCCAGGTAGGATATGTGTATGTGTTTATATGGGTGAGTCTCGGAGTCACCTAGTGCAG”, for which the binding signal was 9300 fluorescence intensity (a.u.).

“CACTATTTACATTCATATTTCTTATTTTCGTTTCATACTTCGGAGTCACCTAGTGCAG”: the binding signal is 11100 fluorescence intensity (a.u.).

For “TCTCTTCCATTCCACCTCTCCATCTCGCCGGAATCTCACCCGGAGTCACCTAGTGCAG”, the binding signal was 8490 fluorescence intensity (a.u.).

“TTTGGCTTTTCTCACTTCCTTATTAATCGTGGACTCTCTTCGGAGTCACCTAGTGCAG”: the binding signal is 9930 fluorescence intensity (a.u.).

For the sequence “GTACAATGCTTCACCATCAGCCCTTTGTCCTGCAGTACGTCGGAGTCACCTAGTGCAG”, the binding signal was 10900 fluorescence intensity (a.u.).

In the case of “TAACCCAACCCATTTGTTCTTAGCTAGAGCCACCACCACCCGGAGTCACCTAGTGCAG”, the binding signal is 8350 fluorescence intensity (a.u.).

Regarding “GGAGGTCGGTGGCCTCGGCGGTGGAGGTCGGGGTCGGGGACGGAGTCACCTAGTGCAG”, the binding signal is 16500 fluorescence intensity (a.u.).

On to “ACTCTACTCCCTCTGTTTCACAATGTAAGTTATTATATCACGGAGTCACCTAGTGCAG”, for which the binding signal was 8200 fluorescence intensity (a.u.).

Take “GTTTCCTCTGTTCTGCGAATTTGCAGGTTTAGCCACAGTACGGAGTCACCTAGTGCAG”: the binding signal is 9270 fluorescence intensity (a.u.).

In the case of “AGTTTTATCCTGGGTTTGTGTTTGGTGCTGTTCTTGCGTGCGGAGTCACCTAGTGCAG”, the binding signal is 10200 fluorescence intensity (a.u.).

In the case of “GACTCGATGGTAGCTCTAATTTGCAGTTTTTTTTTTTTTTCGGAGTCACCTAGTGCAG”, the binding signal was 8970 fluorescence intensity (a.u.).

For the sequence “TTTTCCGGCCACGATGTCACGACTGCGCCATCACCATCCACGGAGTCACCTAGTGCAG”, the binding signal was 8540 fluorescence intensity (a.u.).
